Test [1] deals with T1, CHCHD2 (as immunoprecipitated in the test for MCU and MCUR) (UniProt Q9Y6H1).
T1 sequence: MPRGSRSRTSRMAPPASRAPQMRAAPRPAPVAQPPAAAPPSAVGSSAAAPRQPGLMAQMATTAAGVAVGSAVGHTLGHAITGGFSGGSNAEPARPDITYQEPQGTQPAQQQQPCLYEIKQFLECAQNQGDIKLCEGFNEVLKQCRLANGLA
As to the kind of experiment: co-IP; immunoprecipitation of CHCHD2 after chemical cross-linking; cells not given.

Sequences of proteins named here, by UniProt entry; tags and fusion partners are left off. Residues count along the entry.
UniProt Q8NE86, residues 51-351: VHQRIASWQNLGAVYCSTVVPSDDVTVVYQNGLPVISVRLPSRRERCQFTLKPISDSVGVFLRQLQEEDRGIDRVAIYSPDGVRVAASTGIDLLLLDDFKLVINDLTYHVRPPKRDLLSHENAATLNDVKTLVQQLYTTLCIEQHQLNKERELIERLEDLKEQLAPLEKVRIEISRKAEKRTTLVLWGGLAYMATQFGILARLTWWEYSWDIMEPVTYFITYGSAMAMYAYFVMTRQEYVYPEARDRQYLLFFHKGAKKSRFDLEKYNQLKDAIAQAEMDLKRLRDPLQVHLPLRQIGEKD

For test [2], the target named is T1, CHCHD2 (as immunoprecipitated in the test for MCU and MCUR). As to the kind of experiment: co-IP; immunoprecipitation of CHCHD2, blot for MCU and MCUR; cells not given.

Results are given in words; binding and its absence hold for the method and conditions named. Binding seen in cells or lysates may run through a third protein.

In the case of “mitochondrial calcium uniporter (from UniProt Q8NE86 51-351)”, the binding result in test [1] and in test [2] was “no binding” each time.

Values taken from paper PMC11316225.
